Measurements reported in patent US8747837B2, “Oncolytic vaccinia virus combination cancer therapy” (priority 2009, dated 2014).
At least one compound was matched to its structure with a doubt left.

Legend:
[1] = tested on: renal cell carcinoma metastasized to the liver; assay type: in vivo, human
renal cell carcinoma = conditions: sutent alone, historical, RCC tumors greater than 10 cm; cited from earlier work

## CCN(CC)CCNC(=O)c1c(C)[nH]c(/C=C2\C(=O)Nc3ccc(F)cc32)c1C [sutent, sunitinib]
[1]; Patient 11301, sutent after 4 doses of JX-594
  tumor response to sutent therapy: complete response in all of the patient's tumors
[1]; Patient 11301, sutent after JX-594
  whole body PET scanning: no signal
Renal cell carcinoma
  complete response rate: 0%
